No constants are given. Whether binding was seen depends on the method and setting. Some binding calls cover weakened binding; strength is not graded here.

Amino acid sequences for entries named in this document (tags omitted). A change or cut given only in a name is not applied to a line headed by its entry.
UniProt P21860: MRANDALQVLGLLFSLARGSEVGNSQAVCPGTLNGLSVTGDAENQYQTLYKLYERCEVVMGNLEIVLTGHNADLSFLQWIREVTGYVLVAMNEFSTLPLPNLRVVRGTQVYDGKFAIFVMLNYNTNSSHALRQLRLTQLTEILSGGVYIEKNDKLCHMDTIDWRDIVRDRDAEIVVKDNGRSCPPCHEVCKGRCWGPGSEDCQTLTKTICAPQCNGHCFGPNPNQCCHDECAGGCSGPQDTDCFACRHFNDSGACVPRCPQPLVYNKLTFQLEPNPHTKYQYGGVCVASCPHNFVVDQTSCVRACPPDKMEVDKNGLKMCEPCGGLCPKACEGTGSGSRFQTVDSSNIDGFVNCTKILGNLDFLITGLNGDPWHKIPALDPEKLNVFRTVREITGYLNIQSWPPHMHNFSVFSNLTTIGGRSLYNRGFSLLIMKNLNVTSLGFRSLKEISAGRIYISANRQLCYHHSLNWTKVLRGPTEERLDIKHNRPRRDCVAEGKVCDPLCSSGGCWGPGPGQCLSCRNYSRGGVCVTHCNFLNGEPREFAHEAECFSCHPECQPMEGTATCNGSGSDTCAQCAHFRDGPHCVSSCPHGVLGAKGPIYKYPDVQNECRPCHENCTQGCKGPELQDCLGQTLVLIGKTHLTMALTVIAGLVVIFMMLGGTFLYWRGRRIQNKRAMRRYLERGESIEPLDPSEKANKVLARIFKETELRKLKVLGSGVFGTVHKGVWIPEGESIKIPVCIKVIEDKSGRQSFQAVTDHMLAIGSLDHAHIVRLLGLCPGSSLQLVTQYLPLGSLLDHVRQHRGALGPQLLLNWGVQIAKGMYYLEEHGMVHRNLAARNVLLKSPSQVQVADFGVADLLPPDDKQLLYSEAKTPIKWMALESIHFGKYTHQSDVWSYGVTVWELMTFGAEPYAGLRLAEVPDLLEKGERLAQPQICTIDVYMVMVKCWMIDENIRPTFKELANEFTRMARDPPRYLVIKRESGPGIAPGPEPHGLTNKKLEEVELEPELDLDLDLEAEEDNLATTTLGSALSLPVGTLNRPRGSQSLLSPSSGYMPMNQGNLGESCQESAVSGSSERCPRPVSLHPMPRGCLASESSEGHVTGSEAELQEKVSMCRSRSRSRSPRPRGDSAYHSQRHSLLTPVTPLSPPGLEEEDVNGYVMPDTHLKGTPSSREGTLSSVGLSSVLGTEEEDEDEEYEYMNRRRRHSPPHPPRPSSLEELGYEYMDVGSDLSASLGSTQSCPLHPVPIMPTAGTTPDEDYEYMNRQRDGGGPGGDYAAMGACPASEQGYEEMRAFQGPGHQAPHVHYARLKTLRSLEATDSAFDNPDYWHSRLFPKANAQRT

The target in this experiment is human recombinant HER3 (coated on ELISA plate) (human) (UniProt P21860). Nature of the experiment: ELISA on coated human recombinant HER3. For orientation: In an ELISA, binding on a coated surface is turned into a signal by an enzyme label.

B1: anti-HER3 IgG monoclonal antibody consisting of heavy chain SEQ ID NO: 77 and light chain SEQ ID NO: 78 (unmodified) (antibody, V domains shown)
VH: QVQLVESGGGLVKPGGSLRLSCAASGFTFSDYAMSWIRQAPGKGLEWVSTISDGGTYTYYPDSVKGRFTISRDNAKNSLYLQMNSLRAEDTAVYYCAREWGDYDGFDYWGQGTLVTVSS
VL: DIQMTQSPSSLSASVGDRVTITCRASQEISGYLSWYQQKPGKAPKRLIYAASTLDSGVPSRFSGSGSGTEFTLTISSLQPEDFATYYCLQYDSYPYTFGQGTKLEIKR
B1: the binding result was “binds”.

The record behind these values is KR20230128271A.
